In article PMC13434705:
Results are given in words; binding and its absence hold for the method and conditions named. In cells and extracts the contact can be indirect. Here binding means that the protein was enriched with, or labelled near, the bait; the list need not be complete.

By UniProt entry, the sequences of proteins in these tests, tags left out.
UniProt P09874: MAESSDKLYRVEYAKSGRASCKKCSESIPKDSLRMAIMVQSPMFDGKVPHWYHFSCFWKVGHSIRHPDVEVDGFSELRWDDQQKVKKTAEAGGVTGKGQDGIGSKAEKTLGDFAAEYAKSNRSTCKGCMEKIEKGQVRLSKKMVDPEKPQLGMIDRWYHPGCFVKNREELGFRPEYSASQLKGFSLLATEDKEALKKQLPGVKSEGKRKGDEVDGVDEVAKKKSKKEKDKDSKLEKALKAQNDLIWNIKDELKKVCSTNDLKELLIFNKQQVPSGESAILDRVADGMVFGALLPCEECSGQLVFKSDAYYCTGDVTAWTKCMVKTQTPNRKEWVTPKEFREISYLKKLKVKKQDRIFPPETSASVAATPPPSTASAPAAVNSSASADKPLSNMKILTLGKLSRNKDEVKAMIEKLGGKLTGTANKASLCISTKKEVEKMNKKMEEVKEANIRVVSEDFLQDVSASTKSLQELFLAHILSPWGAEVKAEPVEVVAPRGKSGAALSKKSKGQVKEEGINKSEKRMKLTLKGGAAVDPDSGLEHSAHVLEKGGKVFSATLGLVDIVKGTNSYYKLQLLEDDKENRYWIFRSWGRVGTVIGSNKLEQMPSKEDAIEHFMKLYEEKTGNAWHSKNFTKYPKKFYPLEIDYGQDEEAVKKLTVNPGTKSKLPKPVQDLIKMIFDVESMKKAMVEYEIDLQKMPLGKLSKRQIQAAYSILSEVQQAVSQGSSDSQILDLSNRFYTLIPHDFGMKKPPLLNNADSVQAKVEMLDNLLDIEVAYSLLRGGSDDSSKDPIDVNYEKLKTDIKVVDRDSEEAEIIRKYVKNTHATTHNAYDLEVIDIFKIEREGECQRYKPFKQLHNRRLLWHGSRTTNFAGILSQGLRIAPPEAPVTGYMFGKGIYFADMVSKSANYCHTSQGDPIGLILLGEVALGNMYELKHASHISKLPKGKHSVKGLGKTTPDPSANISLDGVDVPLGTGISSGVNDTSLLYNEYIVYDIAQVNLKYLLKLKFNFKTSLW
UniProt P19474: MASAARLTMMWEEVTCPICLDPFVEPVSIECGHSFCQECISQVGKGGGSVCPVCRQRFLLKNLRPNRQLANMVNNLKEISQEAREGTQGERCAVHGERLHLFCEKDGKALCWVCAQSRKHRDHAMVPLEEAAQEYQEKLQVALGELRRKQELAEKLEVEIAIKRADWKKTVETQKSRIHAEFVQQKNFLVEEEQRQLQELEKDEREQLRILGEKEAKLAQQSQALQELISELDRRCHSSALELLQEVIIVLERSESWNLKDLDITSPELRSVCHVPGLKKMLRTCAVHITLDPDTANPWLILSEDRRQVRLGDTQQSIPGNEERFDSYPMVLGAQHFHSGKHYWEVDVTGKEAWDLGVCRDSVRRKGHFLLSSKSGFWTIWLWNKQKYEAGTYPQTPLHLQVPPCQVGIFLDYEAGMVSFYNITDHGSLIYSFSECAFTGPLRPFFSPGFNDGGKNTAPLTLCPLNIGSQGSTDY

Molecular target: Poly(ADP-ribose) polymerase 1 (PARP1), endogenous (human (endogenous in DMS273, SHP77, HEK293T)) (UniProt P09874)
Assay: affinity purification with mass spectrometry; HEK293T cell lysate immunoprecipitated with an anti-PARP1 antibody (control IgG), LC-MS/MS, n = 1

tripartite motif-containing 21 (TRIM21), endogenous (from UniProt P19474 1-475)
binding: binds
